According to PubChem BioAssay AID1471 (National Center for Advancing Translational Sciences (NCATS), 2008):
Values joined by “and” are separate entries in the source; they are usually repeats but may differ in a detail not shown here. Identical values can stand only once. Screen size: about 230,000 compounds; about 310 (0.13%) were called active. This list was built around the results that the source calls inconclusive (neither active nor inactive); the mix of calls is not that of the screen. The call rests on the fitted dose curve; in most records, active means well fitted activation curve with a large enough effect; inconclusive means small, poorly fitted or top-dose-only effect; inactive means no such curve, though single readings can be large or run the other way. Where the call is inconclusive, the potency comes from a doubtful curve fit.

Test: qHTS Multiplex Assay to Identify Dual Action Probes in a Cell Model of Huntington: Cytoprotection (ATP); further: nearly all actives have a fitted effect of over 45% in size;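 on cytoprotection (ATP increase): toxic huntingtin expression switched on by the ecdysone agonist tebufenozide; % of control where 0% means no effect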
Conditions: PC12 HTT-Q103 induced, ATP luminescence, 40 h; cytoprotection (ATP increase): at 56.4 µM (top of the series) unless noted
Method in brief: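 Compounds added alongside 100 nM tebufenozide, which induces toxic Q103 huntingtin exon 1-GFP in stable PC12 cells; surviving cells quantified by luminescent ATP measurement. Medium: phenol red-free DMEM, 5% equine and 5% calf serum.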
Potency means the concentration at half of the fitted maximal effect.

| Compound | cytoprotection (ATP increase) | Potency |
| --- | --- | --- |
| Cc1ccc2nc(NC3=NC(CC(=O)O)C(=O)N3)nc(C)c2c1 (centres undefined) | inactive: -29.3% | – |
| O=[N+]([O-])c1ccccc1N(CC1CO1)S(=O)(=O)c1ccccc1 (centres undefined) | inactive: 14.8% [at 10 µM] | – |
| CC(CN1CCOCC1)OC(=O)c1cccc(Br)c1 (centres undefined) | – | inconclusive: 11.2 µM [activator, partial curve] |
| CC(C)=CCC/C(C)=C/CC/C(C)=C/CO | – | inconclusive: 0.631 µM [activator, single point] |
| Cc1cc(=O)[nH]c(SCC(=O)Nc2nnc(CC(C)C)s2)n1 | – | inconclusive: 0.631 µM [activator, full curve, poor fit] |
| COc1ccc(NC(=O)NCc2ccncc2)cc1 | inactive: 0.261% | – |
| CCN(CC)S(=O)(=O)c1ccc(NN)nc1 | inactive: 3.74% | – |
| COc1ccc2c(c1)Cc1sc(NC(=O)c3cccnc3)nc1-2 | inactive: -32% | – |
| CC(C)C(=O)Nc1cccc(C(=O)Nc2nnc(C(C)(C)C)s2)c1 | inactive: -0.634% | – |
| CC(C)NC(=O)N1CC[C@@]2(CCCN(C(=O)c3csnn3)C2)C1 | – | inconclusive: 0.0158 µM [activator, full curve, poor fit] |
| COC(=O)CN(C#N)c1nc(N(C)C)nc(N(C)C)n1 | inactive: -8.96% | – |
| Cc1nc(NC(=O)c2ccc(F)cc2)sc1C(=O)Nc1ccc2c(c1)CCC2 | inactive: -19.1% | – |
| Cc1ccc(NC(=S)NNC(=O)c2ccccc2OC(F)F)cc1 | inactive: -23.5% | – |
| NS(=O)(=O)c1cc2c(cc1Cl)NC(CSCc1ccccc1)=NS2(=O)=O | – | inconclusive: 50.1 nM [activator, full curve, poor fit] and inconclusive: 631 nM [activator, partial curve] |
| Cc1c(C(C)C)c(=O)n(-c2ccc(S(=O)(=O)NCc3ccccc3)cc2)n1C | – | inconclusive: 0.316 µM [activator, full curve] |
| CCOC(=O)C1(C)NC(c2ccco2)C2C(=O)N(C)C(=O)C21 (centres undefined) | – | inconclusive: 0.447 µM [activator, partial curve] |
| Cc1ccc(C(=O)OC[C@H]2O[C@H](Cl)C[C@@H]2OC(=O)c2ccc(C)cc2)cc1 | – | inconclusive: 2.51 µM [activator, full curve, poor fit] |
| CC(=O)O[C@H](C(=O)O[C@@H]1C[C@@H](CCC[C@H]2O[C@H](C(=O)OC(C)C)CC[C@@H]2C)O[C@@H](CC#N)C1)c1ccccc1 | – | inconclusive: 2.82 µM [activator, full curve, poor fit] |
| COc1cc(CC(=O)OCC(=O)Nc2cc([N+](=O)[O-])ccc2F)cc(OC)c1OC | inactive: 2.11% [at 1.9 µM] | – |
| CCOc1ccc(CCNC(=O)COC(=O)c2ccco2)cc1OCC | – | inconclusive: 1.26 µM [activator, single point] |
| CC(C)NC(=S)NNc1nc2ccccc2s1 | inactive: 6.5% | – |
| COc1ccc(N2CCN(C(=O)CSc3nc4[nH]ncc4c(=O)n3-c3ccc(Br)cc3)CC2)cc1 | – | inconclusive: 14.1 µM [activator, single point] |
| C=CCNC(=O)C1CC2Cn3c(nc4cc5ccccc5cc43)C2N1C (centres undefined) | inactive: -11.9% [at 10 µM] | – |

| Compound | cytoprotection (ATP increase) | Potency |
| --- | --- | --- |
| O=C(NNC(=O)c1cc2cc(Br)ccc2oc1=O)c1ccc(O)cc1O | – | inconclusive: 3.16 µM [activator, single point] |
| O=C(Cc1ccccc1)N1CCN=C1SCc1cccc([N+](=O)[O-])c1 | – | inconclusive: 22.4 µM [activator, partial curve, poor fit] |
| CN1CCC(=NNC(=O)CN(c2ccc(Oc3ccccc3)cc2)S(C)(=O)=O)CC1 | – | inconclusive: 0.708 µM [activator, single point] |
| O=C1CN(C(=O)COc2ccccc2F)c2ccccc2N1 | – | inconclusive: 4.47 µM [activator, single point] |
| C=C[C@@H](C1=CC(=O)C(OC)=C(OC)C1=O)c1ccccc1 | – | inconclusive: 0.562 µM [activator, full curve, poor fit] |
| CC(C)c1c(O)ccc2c1CCC1[C@@](C)(CO)CCC[C@@]21C (some centres undefined) | inactive: -41.5% | – |
| COC(=O)[C@@]1(Cc2ccc(OC)cc2)[C@@H]2[C@@H](CC(=O)[C@H]2CC(=O)C(=O)N(C)C)CN1C(=O)c1ccccc1 | – | inconclusive: 28.2 µM [activator, single point] |
| Cc1[nH]nc2ncc(C(=O)c3ccccc3O)cc12 | – | active: 20 µM |
| CCCCC/C=C\C/C=C\CCCCCCCCCC(=O)NCCCC(=O)O | – | inconclusive: 3.16 µM [activator, single point] |
| COc1ccccc1-c1nccc(NC2CCNCC2)n1 | – | inconclusive: 0.794 µM [activator, full curve, poor fit] |
| O=C(CN1C2=NCCN2c2ccccc21)c1ccco1 | – | inconclusive: 5.62 µM [activator, single point] |
| COc1ccc(COc2ccccc2C(=O)NCc2ccccc2)cc1F | inactive: 21.3% [at 10 µM] | – |
| Cn1c(=O)c2c(nc(NCC(O)CO)n2CCc2ccccc2)n(C)c1=O (centres undefined) | – | inconclusive: 2.82 µM [activator, single point] |
| C=C1c2c(Cl)ccc(O)c2C(O)=C2C(=O)[C@@]3(O)C(O)=C(C(N)=O)C(=O)[C@@H](N(C)C)[C@@H]3[C@@H](O)[C@H]12 | – | inconclusive: 0.224 µM [activator, partial curve, poor fit] |
| O=C1NC(=S)N/C1=C\C=C\c1ccccc1 | inactive: -3.81% [at 10 µM] | – |
| Cn1cnc([N+](=O)[O-])c1SCC(O)CCl (centres undefined) | – | inconclusive: 10 µM [activator, partial curve] |
| CCNC(=O)CN1C(=O)NC2(CCCCCC2)C1=O | – | inconclusive: 1.58 µM [activator, partial curve, poor fit] |
| COc1cccc(/C=N/NC(=O)C(C)Sc2ccccc2)c1 (centres undefined) | – | inconclusive: 6.31 µM [activator, single point] |
| Cc1ccc(NC(=O)N2CCC(c3nc4c(nnn4Cc4cccc(Cl)c4)c(=O)[nH]3)CC2)cc1 | inactive: -18.5% | – |
| CO[C@H]1COC(=O)[C@H](C)NC(=O)[C@@H](C)COC(=O)[C@H]2CCCN2C(=O)C/C=C\[C@H]1C | – | inconclusive: 1.26 µM [activator, single point] |
| O=C(CSc1ccc(-c2ccco2)nn1)Nc1ccccc1 | – | inconclusive: 22.4 µM [activator, single point] |
| O=C(CSc1nc(-c2ccccc2)cc(C(F)(F)F)n1)N1CCOCC1 | inactive: 6.86% | – |
| Oc1csc(Cc2nc(-c3ccc(Br)cc3)cs2)n1 | inactive: 6.52% | – |

| Compound | cytoprotection (ATP increase) | Potency |
| --- | --- | --- |
| COCCN1C=C(C(=O)OC)C(c2ccccc2C(F)(F)F)C(C(=O)OC)=C1 | – | inconclusive: 0.112 µM [activator, full curve, poor fit] |
| C[C@]1(C(=O)NCC2CC2)C=C[C@@H](Cc2ccccc2)N1C(=O)c1ccccc1 | – | inconclusive: 39.8 µM [activator, single point] |
| COc1cccc(/C=N/NC(=O)c2cc3c(OC)c(OC)ccc3[nH]2)c1OC | inactive: 1.73% [at 0.074 µM] | – |
| Nc1nc(Nc2cccc(Cl)c2)nc(NCc2ccco2)c1[N+](=O)[O-] | – | inconclusive: 1.12 µM [activator, partial curve] |
| N#C/C(=C\c1c(N(Cc2ccccc2)Cc2ccccc2)nc2ccccn2c1=O)C(N)=O | inactive: -21.8% [at 10 µM] | – |
| CN1C(=O)CCC1c1cccnc1 (centres undefined) | – | inconclusive: 8.91 µM [activator, partial curve, poor fit] |
| COc1ccccc1-c1nc2ccccc2nc1-c1ccccc1OC | – | inconclusive: 1 µM [activator, full curve, poor fit] |
| COC(=O)[C@@]1(Cc2ccc(F)cc2)[C@H]2c3cc(C(=O)N4CCCC4)n(Cc4cccc5ccccc45)c3C[C@H]2CN1C(=O)c1ccccc1 | – | inconclusive: 20 µM [activator, partial curve] |
| Cc1ccc(NC(=O)Cn2c(=O)c(C)nc3ccccc32)cc1 | – | inconclusive: 6.31 µM [activator, partial curve, poor fit] |
| COc1cccc(NC(=O)NC2CCCCC2C)c1 (centres undefined) | – | inconclusive: 0.447 µM [activator, partial curve, poor fit] |
| O=C(COC(=O)c1ccc2c(c1)C(=O)N(c1cccc3ncccc13)C2=O)c1ccc(Cl)cc1 | inactive: 25.1% [at 10 µM] | – |
| CCC(=O)N1CCN(c2ccc(NC(=O)c3ccc([N+](=O)[O-])o3)cc2Cl)CC1 | – | active: 0.631 µM |
| CC(=O)N1N=C(c2ccc(C)cc2)CC1c1ccco1 (centres undefined) | – | inconclusive: 5.62 µM [activator, single point] |
| COC(=O)CN1C(=O)N/C(=C/c2ccc(OC)cc2)C1=O | inactive: -34.9% | – |
| COc1ccc(-n2c(C)cc(C(=O)CCl)c2C)cc1 | inactive: -142% | – |
| Cc1ccc(CSCCNC(=O)CN(c2cccc([N+](=O)[O-])c2)S(C)(=O)=O)cc1 | – | inconclusive: 31.6 µM [activator, partial curve] |
| O=C(NCCNc1ccc(Cl)cc1[N+](=O)[O-])c1cccnc1 | inactive: -12.4% | – |
| O=c1[nH]c(=S)[nH]nc1Cc1ccccc1 | inactive: -15.2% [at 0.074 µM] | – |
| O=C(NCc1ccco1)c1cc2nc(-c3ccc4c(c3)OCO4)cc(C(F)(F)F)n2n1 | inactive: -6.09% [at 10 µM] | – |
| CCOC(=O)CNC(=O)c1cc(C)oc1C | inactive: -17.2% | – |
| CN(C)c1ncc2nc(-c3cccs3)c(=O)n(-c3ccccc3)c2n1 | inactive: 3.43% | – |
| O=C(Nc1nncs1)c1c(F)c(F)c(F)c(F)c1F | inactive: -0.0399% | – |
| COc1ccccc1Cn1c(CO)nc2ccccc21 | – | inconclusive: 1.26 µM [activator, single point] |
